From PubChem BioAssay AID256 (DTP/NCI, 2004)
The list is a part of this screen's results and no random one: it gathers tests that were run many times, whatever their T/C, doses with no T/C, and many T/C values between a quarter and a half above the control. Further doses and runs are listed elsewhere. T/C gives the treated animals as a percentage of the vehicle group. Some entries give survivors of the animals treated and no T/C: the source files T/C as zero there, which appears to mark a toxic dose or a test without result, not a measured value. Some survivor counts are full or nearly so, which does not show that the dose was tolerated: the source hardly ever lists a survival T/C far under the control, and the zero likely stands for such cases as well. Counts of survivors are from the toxicity check (mostly the fifth day) where no day follows; animals may have died later. Schedule codes are those of the source, taken here to give the interval after Q, in days (D) or hours (H), and the number of doses after X. Some structures stand for samples that the source files as different forms (salt, stereo form or complex); doses refer to the form tested. Some doses were run more than once; their values stand side by side, smallest first. Where survival is the endpoint, this PubChem deposit counts one and a half times the control or more as active, and values a quarter to a half above the control carry no call in these data; other NCI protocols may use other cut-offs. Some T/C values carry the count of animals alive at the toxicity check (mostly the fifth day); where none is given, no animal had died by that day.

Test system: CD2F1 mice, L1210 leukemia ip, survival T/C
Assay: NCI In Vivo Anticancer Drug Screen. Data for tumor model L1210 Leukemia (intraperitoneal) in CD2F1 (CDF1) mice
Details: T/C endpoint: mean survival time, higher T/C = longer survival
Method in brief: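 Each value reflects a quotient of treated over vehicle control outcomes in mice with a transplanted tumor.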

[1] = dose: 200.0 mg/kg/injection, schedule: Q01DX009 (ip), vehicle: saline with Tween-80
[2] = dose: 200.0 mg/kg/injection, schedule: Q01DX009 (ip), vehicle: water
[3] = dose: 100.0 mg/kg/injection, schedule: Q01DX009 (ip), vehicle: water

For `NC(=S)NC(=S)Nc1ccc(Cl)cc1`, the T/C (dose: 100.0 mg/kg/injection, schedule: Q04DX002 (ip), vehicle: saline with Tween-80) was 125 % of control [2 of 3 alive], the survivor count (dose: 200.0 mg/kg/injection, schedule: Q04DX002 (ip), vehicle: saline with Tween-80) was 0 of 3 and 1 of 3 and the survivor count (dose: 400.0 mg/kg/injection, schedule: Q04DX002 (ip), vehicle: saline with Tween-80) was 0 of 3.

For `O=C1C(=O)N(CNC(c2ccccc2)c2ccccc2)c2ccccc21`, the survivor count (dose: 200.0 mg/kg/injection, schedule: Q01DX001 (ip), vehicle: saline with Tween-80) was 5 of 6.

For `CCN(CC)C(=O)c1cc[n+](Cc2ccc(Cl)c(Cl)c2)cc1`, the survivor count [1] was 0 of 6 and the survivor count (dose: 400.0 mg/kg/injection, schedule: Q04DX003 (ip), vehicle: saline with Tween-80) was 0 of 6.

`[O-][n+]1ccccc1C[P+](c1ccccc1)(c1ccccc1)c1ccccc1` was tested, and the survivor count [2] was 0 of 6.

For `CC(N)CCCO` (stereo unspecified), the T/C (dose: 100.0 mg/kg/injection, schedule: Q01DX001 (ip), vehicle: saline) was 132 % of control [3 of 4 alive].

With `COC(=O)C#CBr` the survivor count (dose: 25.0 mg/kg/injection, schedule: Q04DX003 (ip), vehicle: other) was 0 of 6, the survivor count (dose: 100.0 mg/kg/injection, schedule: Q04DX003 (ip), vehicle: other) was 0 of 6 and the survivor count (dose: 200.0 mg/kg/injection, schedule: Q04DX003 (ip), vehicle: other) was 0 of 6. The survivor count (dose: 400.0 mg/kg/injection, schedule: Q04DX003 (ip), vehicle: other) was 0 of 6.

With `CC[N+](C)(CC)c1cccc(OC(=O)NC)c1` the survivor count (dose: 75.0 mg/kg/injection, schedule: Q01DX001 (ip), vehicle: saline) was 0 of 6, the survivor count (dose: 150.0 mg/kg/injection, schedule: Q01DX001 (ip), vehicle: saline) was 0 of 6 and the survivor count (dose: 300.0 mg/kg/injection, schedule: Q01DX001 (ip), vehicle: saline) was 0 of 6.

`N=c1ccn(C2OC(CO)C(O)C2O)c(=O)n1O` (stereo unspecified) was tested, and the T/C (dose: 32.0 mg/kg/injection, schedule: Q01DX008 (oral), vehicle: saline) was 125 % of control, the T/C (dose: 64.0 mg/kg/injection, schedule: Q01DX008 (oral), vehicle: saline) was 145 % of control and the T/C (dose: 128.0 mg/kg/injection, schedule: Q01DX009 (oral), vehicle: saline) was 126 % of control. The T/C (dose: 128.0 mg/kg/injection, schedule: Q04DX003 (ip), vehicle: saline) was 125 % of control, the T/C (dose: 256.0 mg/kg/injection, schedule: Q01DX009 (oral), vehicle: saline) was 131 % of control and the T/C (dose: 256.0 mg/kg/injection, schedule: Q04DX003 (ip), vehicle: saline) was 133 % of control. The T/C (dose: 512.0 mg/kg/injection, schedule: Q04DX003 (oral), vehicle: saline) was 135 % of control.

For `CC(O)C(NC(=O)c1cnc(OCc2ccccc2)nc1N)C(=O)O` (stereo unspecified), the survivor count (dose: 100.0 mg/kg/injection, schedule: Q01DX009 (ip), vehicle: saline with Tween-80) was 1 of 6, the survivor count [1] was 0 of 6 and the survivor count (dose: 400.0 mg/kg/injection, schedule: Q01DX009 (ip), vehicle: saline with Tween-80) was 0 of 6.

With `ClCC[N+]12CC[N+](CCCl)(CC1)C2` the T/C (dose: 44.0 mg/kg/injection, schedule: Q01DX009 (ip), vehicle: saline) was 140 % of control, the T/C (dose: 50.0 mg/kg/injection, schedule: Q01DX009 (ip), vehicle: saline) was 130 % of control and the T/C (dose: 75.0 mg/kg/injection, schedule: Q04DX003 (ip), vehicle: saline) was 130 % of control. For the same compound, the T/C (dose: 100.0 mg/kg/injection, schedule: Q01DX009 (ip), vehicle: saline) was 139 [5 of 6 alive], 145, 176, 189 % of control, the T/C [3] was 125 % of control and the survivor count [3] was 5 of 6. The T/C [2] was 138 and 143 % of control, the T/C (dose: 300.0 mg/kg/injection, schedule: Q04DX003 (ip), vehicle: saline) was 147 % of control and the survivor count (dose: 400.0 mg/kg/injection, schedule: Q01DX009 (ip), vehicle: saline) was 3 of 10, 2 of 6, 4 of 6. The T/C (dose: 600.0 mg/kg/injection, schedule: Q04DX003 (ip), vehicle: saline) was 137 % of control.

With `CCOC(=O)C(CC1OCCO1)C1=NC(C)(C)CC(C)O1` (stereo unspecified) the survivor count (dose: 400.0 mg/kg/injection, schedule: Q01DX001 (ip), vehicle: acetone) was 2 of 6.
